Among the data in paper PMC10770081 are binding values, retold here.

Results are given in words; binding and its absence hold for the method and conditions named. Binding seen in cells or lysates may run through a third protein. Some results given as binding are weak or reduced against the parent protein; the word gives no strength. For some assays here: Where a sequence is shown, tags or fusion partners need not be part of it.

Experiment [1] deals with T1, full-length Flag-tagged recombinant NAT10 (UniProt Q9H0A0).
T1 sequence: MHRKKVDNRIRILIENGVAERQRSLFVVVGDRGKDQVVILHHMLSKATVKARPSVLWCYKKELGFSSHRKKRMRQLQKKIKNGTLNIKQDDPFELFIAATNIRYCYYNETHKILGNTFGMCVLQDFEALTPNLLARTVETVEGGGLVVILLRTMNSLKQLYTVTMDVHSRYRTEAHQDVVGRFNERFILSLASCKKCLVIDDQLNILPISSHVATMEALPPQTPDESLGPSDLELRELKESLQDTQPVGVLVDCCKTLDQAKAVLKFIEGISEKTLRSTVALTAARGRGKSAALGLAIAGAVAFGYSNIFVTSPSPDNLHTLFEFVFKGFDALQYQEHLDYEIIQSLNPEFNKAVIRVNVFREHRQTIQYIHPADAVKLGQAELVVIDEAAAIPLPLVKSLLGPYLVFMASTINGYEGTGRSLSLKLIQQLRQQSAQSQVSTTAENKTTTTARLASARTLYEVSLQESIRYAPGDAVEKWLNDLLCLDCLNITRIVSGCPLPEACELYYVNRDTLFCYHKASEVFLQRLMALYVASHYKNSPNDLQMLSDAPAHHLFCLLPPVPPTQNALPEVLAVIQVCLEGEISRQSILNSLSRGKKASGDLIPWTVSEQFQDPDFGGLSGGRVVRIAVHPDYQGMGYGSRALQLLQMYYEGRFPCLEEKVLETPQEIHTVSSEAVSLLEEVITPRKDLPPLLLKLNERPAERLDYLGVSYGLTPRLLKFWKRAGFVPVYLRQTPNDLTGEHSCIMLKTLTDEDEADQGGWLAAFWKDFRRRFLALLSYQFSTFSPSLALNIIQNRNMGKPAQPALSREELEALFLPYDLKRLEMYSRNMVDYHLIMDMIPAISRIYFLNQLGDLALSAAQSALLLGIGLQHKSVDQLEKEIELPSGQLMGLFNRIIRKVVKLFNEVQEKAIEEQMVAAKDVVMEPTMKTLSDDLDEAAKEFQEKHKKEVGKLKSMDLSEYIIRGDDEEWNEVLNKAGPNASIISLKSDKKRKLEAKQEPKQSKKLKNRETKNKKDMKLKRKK
Put plainly: co-IP; anti-Flag precipitation from J82 cells with Flag-tagged full-length or truncated CLIC3 or NAT10; blot for the endogenous partner; Co-IP buffer 20 mM Tris-HCl pH 7.5, 150 mM NaCl, 1 mM EDTA, 0.5% NP-40; 4 °C.

Experiment [2] deals with T2, N-acetyltransferase 10 (NAT10) (human (endogenous in J82 and TCCSUP)) (UniProt Q9H0A0).
T2 sequence: T1 sequence
Put plainly: co-IP; endogenous proteins in J82 and TCCSUP lysates; antibody against CLIC3 or against NAT10 versus control IgG; Co-IP buffer 20 mM Tris-HCl pH 7.5, 150 mM NaCl, 1 mM EDTA, 0.5% NP-40; 4 °C; Protein A/G magnetic beads; Western blotting.

B1: Chloride intracellular channel 3 (CLIC3) protein (protein, UniProt O95833 1-236)
chain: MAETKLQLFVKASEDGESVGHCPSCQRLFMVLLLKGVPFTLTTVDTRRSPDVLKDFAPGSQLPILLYDSDAKTDTLQIEDFLEETLGPPDFPSLAPRYRESNTAGNDVFHKFSAFIKNPVPAQDEALYQQLLRALARLDSYLRAPLEHELAGEPQLRESRRRFLDGDRLTLADCSLLPKLHIVDTVCAHFRQAPIPAELRGVRRYLDSAMQEKEFKYTCPHSAEILAAYRPAVHPR
Take B1: the binding result in experiment [1] and in experiment [2] was “binds” each time.
